According to paper PMC12030497, “Plasma Protein Binding, Biostability, Metabolite Profiling, and CYP450 Phenotype of TPB15 Across Different Species: A Novel Smoothened Inhibitor for TNBC Therapy” (Pharmaceutics, 2025):

Assay: Non-specific binding of TPB15 to ultrafiltration tubes

With `O=C(Nc1ccc(Cl)c(-c2nnc3c(Cl)cccn23)c1)c1ccc(Cl)nc1Cl` [TPB15] the “NSB (%)” value (4 μg/mL in plasma ultrafiltrate) was 1.75 ± 0.16%, the “NSB (%)” value (8 μg/mL in plasma ultrafiltrate) was 2.76 ± 0.27% and the “NSB (%)” value (16 μg/mL in plasma ultrafiltrate) was 2.67 ± 0.34%. For the same molecule, the “average NSB” value (mean of low, medium and high concentrations) was 2.39 ± 0.46%.
